From US20230159934

Chains of the proteins cited; added tags and fusions are not shown. Chains listed by the source or under a name are the forms on record and can include a tag or linker.
Insulin receptor (hIR) expressed on Rat-1/hIR cells (Homo sapiens), one chain, as listed by the source, chain 2 of 2: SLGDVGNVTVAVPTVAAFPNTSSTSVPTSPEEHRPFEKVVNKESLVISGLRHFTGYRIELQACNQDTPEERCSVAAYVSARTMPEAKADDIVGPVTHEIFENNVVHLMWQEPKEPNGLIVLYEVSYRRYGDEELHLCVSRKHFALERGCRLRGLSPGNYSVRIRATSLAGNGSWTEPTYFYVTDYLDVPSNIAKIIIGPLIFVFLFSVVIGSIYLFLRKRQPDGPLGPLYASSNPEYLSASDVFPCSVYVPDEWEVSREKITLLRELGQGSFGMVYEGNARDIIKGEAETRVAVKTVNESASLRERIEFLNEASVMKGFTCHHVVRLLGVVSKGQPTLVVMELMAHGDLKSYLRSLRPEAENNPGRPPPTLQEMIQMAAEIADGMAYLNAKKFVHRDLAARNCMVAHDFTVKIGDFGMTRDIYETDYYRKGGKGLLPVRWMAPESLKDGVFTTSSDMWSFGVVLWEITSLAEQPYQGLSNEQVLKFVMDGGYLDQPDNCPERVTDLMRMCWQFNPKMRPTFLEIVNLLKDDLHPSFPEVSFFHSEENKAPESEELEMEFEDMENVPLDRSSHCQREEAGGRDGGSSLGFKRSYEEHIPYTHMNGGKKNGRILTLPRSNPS

Test system: Insulin receptor (hIR) expressed on Rat-1/hIR cells (Homo sapiens)
Assay: activity in cells
Settings: P = naphthyl-dU, 200 nM, protein on the cell surface, single-stranded DNA, variant of A48m (A48 seq 1-19)

CGCCTGGTGTTCTAGACGACCTATAGGTTAGGC [A48m G27 C3-linker]
functional effect of the aptamer (C3 linker at position 27, IR phosphorylation): 0.05 fold of A48m

CGCCTGGTGTTCTAGACGACCTATAGGTTAGGC [A48m C21 C3-linker]
functional effect of the aptamer (C3 linker at position 21, IR phosphorylation): 0.06 fold of A48m

CGCCTGGTGTTCTAGACGACCTATAGGTTAGGC [A48m G26 2'-F]
functional effect of the aptamer (2'-F at position 26, IR phosphorylation): 0.04 fold of A48m

CGCCTGGTGTTCTAGACGACCTATAGGTTAGGC [A48m G9 2'-OMe]
functional effect of the aptamer (2'-OMe at position 9, IR phosphorylation): 0.08 fold of A48m

CGCCTGGTGTTCTAGACGACCTATAGGTTAGGC [A48m A25 2'-OMe]
functional effect of the aptamer (2'-OMe at position 25, IR phosphorylation): 0 fold of A48m

CGCCTGGTGTTCTAGACGACCTATAGGTTAGGC [A48m G26 2'-OMe]
functional effect of the aptamer (2'-OMe at position 26, IR phosphorylation): 0.03 fold of A48m
